Results: paper PMC9354775
No constants are given. Whether binding was seen depends on the method and setting. For some of these results: In cells and extracts the contact can be indirect. Some binding calls cover weakened binding; strength is not graded here. For some of these results: Sequences can lack the tags named with a protein.

Amino acid sequences for entries named in this document (tags omitted).
UniProt Q6WWW4: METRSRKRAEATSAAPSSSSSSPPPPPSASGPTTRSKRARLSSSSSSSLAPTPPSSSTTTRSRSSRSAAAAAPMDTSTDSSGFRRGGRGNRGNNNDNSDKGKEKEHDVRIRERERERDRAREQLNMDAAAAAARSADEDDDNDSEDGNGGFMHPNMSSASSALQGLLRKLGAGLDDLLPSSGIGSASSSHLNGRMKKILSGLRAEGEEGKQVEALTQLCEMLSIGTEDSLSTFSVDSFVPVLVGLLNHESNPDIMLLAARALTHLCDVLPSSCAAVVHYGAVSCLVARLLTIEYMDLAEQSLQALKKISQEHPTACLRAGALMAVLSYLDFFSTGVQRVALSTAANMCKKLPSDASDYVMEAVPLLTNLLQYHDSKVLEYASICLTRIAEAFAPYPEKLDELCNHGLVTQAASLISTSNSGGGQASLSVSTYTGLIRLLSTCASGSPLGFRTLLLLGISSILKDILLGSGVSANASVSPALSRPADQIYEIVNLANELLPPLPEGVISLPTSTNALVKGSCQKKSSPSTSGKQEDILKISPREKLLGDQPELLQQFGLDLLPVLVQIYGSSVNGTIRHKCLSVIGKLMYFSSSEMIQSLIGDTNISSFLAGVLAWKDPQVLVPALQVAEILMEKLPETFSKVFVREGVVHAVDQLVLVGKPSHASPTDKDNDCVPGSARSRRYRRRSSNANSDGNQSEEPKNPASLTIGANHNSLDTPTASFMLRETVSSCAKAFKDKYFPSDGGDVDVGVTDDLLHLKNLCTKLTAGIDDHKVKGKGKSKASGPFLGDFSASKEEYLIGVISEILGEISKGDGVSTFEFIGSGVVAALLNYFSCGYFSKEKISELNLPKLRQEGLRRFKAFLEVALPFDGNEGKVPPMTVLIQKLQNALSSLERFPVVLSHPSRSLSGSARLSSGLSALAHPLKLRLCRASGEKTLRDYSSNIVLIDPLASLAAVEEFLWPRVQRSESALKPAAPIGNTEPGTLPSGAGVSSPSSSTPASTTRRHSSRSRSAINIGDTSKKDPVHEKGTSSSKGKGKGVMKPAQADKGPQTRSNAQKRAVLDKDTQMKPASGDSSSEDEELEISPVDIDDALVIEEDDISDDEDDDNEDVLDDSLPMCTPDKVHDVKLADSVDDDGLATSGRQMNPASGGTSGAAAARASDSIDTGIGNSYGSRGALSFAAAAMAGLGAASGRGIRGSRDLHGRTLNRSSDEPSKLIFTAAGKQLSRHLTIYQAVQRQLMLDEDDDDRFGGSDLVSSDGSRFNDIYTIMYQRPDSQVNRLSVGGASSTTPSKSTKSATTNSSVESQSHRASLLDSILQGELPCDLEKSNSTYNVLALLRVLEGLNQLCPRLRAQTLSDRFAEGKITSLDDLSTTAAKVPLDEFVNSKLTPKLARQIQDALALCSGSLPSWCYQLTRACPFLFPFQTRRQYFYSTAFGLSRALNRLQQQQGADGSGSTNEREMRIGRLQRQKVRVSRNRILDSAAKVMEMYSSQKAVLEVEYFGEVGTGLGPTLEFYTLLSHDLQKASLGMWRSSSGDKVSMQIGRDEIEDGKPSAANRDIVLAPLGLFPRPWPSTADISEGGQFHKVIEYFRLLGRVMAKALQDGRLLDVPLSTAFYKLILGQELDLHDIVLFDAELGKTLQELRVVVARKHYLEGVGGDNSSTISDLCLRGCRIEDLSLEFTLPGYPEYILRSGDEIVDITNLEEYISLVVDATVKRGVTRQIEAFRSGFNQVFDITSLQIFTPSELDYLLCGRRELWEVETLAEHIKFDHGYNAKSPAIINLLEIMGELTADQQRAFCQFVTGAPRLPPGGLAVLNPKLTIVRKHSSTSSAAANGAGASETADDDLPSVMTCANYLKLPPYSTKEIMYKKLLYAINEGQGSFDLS
UniProt Q6EVK6: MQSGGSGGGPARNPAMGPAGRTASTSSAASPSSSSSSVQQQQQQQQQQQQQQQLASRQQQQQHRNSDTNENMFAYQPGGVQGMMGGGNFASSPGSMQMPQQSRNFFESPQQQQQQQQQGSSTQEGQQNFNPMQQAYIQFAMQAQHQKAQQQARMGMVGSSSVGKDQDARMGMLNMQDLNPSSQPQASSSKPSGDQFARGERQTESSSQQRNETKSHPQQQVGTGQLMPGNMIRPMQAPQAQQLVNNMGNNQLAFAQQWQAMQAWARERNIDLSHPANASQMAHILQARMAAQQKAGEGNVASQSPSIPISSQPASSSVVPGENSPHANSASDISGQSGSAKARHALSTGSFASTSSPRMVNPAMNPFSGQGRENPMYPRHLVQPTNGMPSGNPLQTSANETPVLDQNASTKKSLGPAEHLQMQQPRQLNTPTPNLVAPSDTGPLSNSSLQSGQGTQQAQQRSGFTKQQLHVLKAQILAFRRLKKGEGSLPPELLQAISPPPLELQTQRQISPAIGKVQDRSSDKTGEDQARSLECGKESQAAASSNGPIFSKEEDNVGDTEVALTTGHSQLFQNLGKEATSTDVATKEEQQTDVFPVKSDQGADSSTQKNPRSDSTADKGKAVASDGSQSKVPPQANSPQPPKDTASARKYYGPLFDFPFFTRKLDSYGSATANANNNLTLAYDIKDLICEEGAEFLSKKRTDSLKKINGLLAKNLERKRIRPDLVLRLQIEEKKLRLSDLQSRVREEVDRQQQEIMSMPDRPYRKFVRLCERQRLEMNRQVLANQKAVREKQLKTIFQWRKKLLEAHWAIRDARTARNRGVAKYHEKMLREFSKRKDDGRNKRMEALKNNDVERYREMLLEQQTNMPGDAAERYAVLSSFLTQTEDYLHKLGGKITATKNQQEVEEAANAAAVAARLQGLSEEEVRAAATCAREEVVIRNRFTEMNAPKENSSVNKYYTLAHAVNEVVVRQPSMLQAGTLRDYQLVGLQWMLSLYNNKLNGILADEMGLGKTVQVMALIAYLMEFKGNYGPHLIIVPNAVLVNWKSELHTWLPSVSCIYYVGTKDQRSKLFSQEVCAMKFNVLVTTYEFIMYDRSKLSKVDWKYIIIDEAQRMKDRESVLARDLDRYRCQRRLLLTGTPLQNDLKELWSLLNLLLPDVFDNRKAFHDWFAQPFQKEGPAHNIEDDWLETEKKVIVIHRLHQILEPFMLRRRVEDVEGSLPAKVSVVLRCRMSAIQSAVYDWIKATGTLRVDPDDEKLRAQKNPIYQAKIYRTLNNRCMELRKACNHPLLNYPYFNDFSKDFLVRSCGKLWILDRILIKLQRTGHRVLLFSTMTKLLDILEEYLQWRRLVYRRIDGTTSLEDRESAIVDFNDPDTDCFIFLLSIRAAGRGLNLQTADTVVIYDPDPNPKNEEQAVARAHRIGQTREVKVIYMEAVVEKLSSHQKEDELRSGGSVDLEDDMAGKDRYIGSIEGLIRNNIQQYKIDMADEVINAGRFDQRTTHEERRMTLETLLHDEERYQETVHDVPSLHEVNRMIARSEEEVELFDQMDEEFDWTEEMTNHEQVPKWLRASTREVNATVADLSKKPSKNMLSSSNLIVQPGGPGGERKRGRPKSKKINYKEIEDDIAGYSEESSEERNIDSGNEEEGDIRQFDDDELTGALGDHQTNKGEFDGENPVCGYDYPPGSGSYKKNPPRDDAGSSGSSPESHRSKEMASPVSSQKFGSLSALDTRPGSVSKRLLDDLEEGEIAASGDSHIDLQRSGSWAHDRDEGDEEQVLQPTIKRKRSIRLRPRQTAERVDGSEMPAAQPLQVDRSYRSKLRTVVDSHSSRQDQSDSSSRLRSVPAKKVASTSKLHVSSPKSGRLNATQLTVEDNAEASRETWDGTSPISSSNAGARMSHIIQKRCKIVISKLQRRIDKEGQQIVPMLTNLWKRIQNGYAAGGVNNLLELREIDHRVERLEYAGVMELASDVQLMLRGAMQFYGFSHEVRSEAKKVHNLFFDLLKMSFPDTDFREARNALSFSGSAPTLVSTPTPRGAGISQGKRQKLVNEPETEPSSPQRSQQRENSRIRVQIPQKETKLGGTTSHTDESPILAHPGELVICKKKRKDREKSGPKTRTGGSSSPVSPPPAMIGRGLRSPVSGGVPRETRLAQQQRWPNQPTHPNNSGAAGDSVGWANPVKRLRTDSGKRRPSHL
UniProt Q42525: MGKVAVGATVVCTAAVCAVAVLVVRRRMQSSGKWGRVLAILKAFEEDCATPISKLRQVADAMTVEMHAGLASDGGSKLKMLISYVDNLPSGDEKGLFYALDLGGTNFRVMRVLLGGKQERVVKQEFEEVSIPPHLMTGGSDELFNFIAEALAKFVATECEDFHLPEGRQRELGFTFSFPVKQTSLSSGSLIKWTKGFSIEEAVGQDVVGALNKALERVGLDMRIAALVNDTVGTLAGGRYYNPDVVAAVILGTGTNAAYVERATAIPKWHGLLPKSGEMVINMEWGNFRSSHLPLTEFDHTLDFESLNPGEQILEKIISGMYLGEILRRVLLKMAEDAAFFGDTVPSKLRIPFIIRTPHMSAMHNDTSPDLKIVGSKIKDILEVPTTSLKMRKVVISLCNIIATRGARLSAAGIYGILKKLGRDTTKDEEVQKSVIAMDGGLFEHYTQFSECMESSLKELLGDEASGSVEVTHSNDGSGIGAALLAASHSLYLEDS

How the values were obtained:
UBP12-GFPn (A. thaliana) = target: T1, UBP12-GFPn (A. thaliana) (UniProt Q9FPT1); assay: split reporter; BiFC with YN (pCAMBIA1300-N1-YFPN) and YC (pCAMBIA1300-N1-YFPC) fusions co-delivered to Arabidopsis epidermal cells by Agrobacterium-mediated injection; signals in the nucleus; empty vector as negative control
T1 sequence: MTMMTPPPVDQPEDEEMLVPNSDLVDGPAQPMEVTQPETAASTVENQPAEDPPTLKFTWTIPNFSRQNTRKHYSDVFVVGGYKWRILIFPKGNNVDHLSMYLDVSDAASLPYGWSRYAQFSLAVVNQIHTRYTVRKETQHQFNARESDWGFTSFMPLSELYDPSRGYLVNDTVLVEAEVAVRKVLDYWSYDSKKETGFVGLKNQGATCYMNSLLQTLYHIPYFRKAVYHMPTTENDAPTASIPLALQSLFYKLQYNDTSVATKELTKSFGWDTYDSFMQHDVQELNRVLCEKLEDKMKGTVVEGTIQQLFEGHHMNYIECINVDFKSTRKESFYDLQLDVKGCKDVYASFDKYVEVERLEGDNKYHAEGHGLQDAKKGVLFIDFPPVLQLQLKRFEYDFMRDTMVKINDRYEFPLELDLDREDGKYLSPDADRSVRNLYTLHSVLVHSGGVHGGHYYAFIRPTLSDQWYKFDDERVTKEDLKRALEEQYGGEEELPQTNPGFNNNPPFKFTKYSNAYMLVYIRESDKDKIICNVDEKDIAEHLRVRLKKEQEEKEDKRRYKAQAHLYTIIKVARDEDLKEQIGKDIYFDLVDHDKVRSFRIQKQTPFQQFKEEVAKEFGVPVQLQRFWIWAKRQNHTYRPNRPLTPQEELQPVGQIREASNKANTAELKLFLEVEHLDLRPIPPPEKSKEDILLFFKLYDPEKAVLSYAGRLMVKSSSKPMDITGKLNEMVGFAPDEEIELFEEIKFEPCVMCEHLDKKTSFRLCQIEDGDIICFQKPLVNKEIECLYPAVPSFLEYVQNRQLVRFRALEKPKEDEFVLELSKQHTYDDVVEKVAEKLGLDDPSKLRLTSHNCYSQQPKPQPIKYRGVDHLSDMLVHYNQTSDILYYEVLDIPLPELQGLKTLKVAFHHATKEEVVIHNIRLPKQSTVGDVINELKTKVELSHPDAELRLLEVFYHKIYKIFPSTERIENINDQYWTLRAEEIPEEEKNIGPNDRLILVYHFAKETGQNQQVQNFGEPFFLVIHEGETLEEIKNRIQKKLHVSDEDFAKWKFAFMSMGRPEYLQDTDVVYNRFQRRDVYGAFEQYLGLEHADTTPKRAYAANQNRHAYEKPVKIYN

UPL3-GFPn (A. thaliana) = UPL3-GFPn (A. thaliana) (UniProt Q6WWW4); assay: as above
BD-UBP12 (A. thaliana) = target: T2, BD-UBP12 (A. thaliana) (UniProt Q9FPT1); assay: two-hybrid; GAL4-based two-hybrid system 3 (Clontech); baits in pGBKT7-BD, preys in pGADT7-AD; growth on SD/-LTH or SD/-ALTH
T2 sequence: T1 sequence

[1] = target: full-length UPL3 bait (A. thaliana) (UniProt Q6WWW4); assay: as above

Molecule: BRM-GFPc (from UniProt Q6EVK6 1-2193)
- binding (UBP12-GFPn (A. thaliana)): binds
- binding (UPL3-GFPn (A. thaliana)): binds

Molecule: HXK1-GFPc (from UniProt Q42525 1-496) (enzyme)
- binding (UBP12-GFPn (A. thaliana)): no binding
- binding (UPL3-GFPn (A. thaliana)): binds

Molecule: UPL3 (prey against BD-UBP12) (from UniProt Q6WWW4 1-1888) (enzyme)
- binding (BD-UBP12 (A. thaliana)): binds

B1: UBP12 (two-hybrid prey) (enzyme, UniProt Q9FPT1 1-1116)
chain: T1 sequence
- binding [1]: binds

B2: ubiquitin-conjugating enzyme 35 (UBC35) (two-hybrid prey) (enzyme, UniProt Q94A97 1-153)
chain: MANSNLPRRIIKETQRLLSEPAPGISASPSEDNMRYFNVMILGPTQSPYEGGVFKLELFLPEEYPMAAPKVRFLTKIYHPNIDKLGRICLDILKDKWSPALQIRTVLLSIQALLSAPNPDDPLSENIAKHWKSNEAEAVDTAKEWTRLYASGA
- binding [1]: binds weakly

B3: PPC2-GFPc (enzyme, UniProt Q5GM68 1-963)
chain: MAARNLEKMASIDAQLRLLAPGKVSEDDKLIEYDALLLDRFLDILQDLHGEDVREFVQECYEVAADYDGNRNTEKLEELGNMLTSLDPGDSIVVTKSFSNMLSLANLAEEVQIAYRRRIKKLKKGDFADEASATTESDIEETLKRLLQLNKTPEEVFDALKNQTVDLVLTAHPTQSVRRSLLQKFGRIRDCLTQLYAKDITPDDKQELDEALQREIQAAFRTDEIRRTPPTPQDEMRAGMSYFHETIWKGVPKFLRRVDTALKNIGINERVPYNAPLIQFSSWMGGDRDGNPRVTPEVTRDVCLLARMMAANLYFSQIEDLMFEMSMWRCNEELRVRAERQRCAKRDAKHYIEFWKQIPANEPYRAILGDVRDKLYNTRERARQLLSSGVSDVPEDAVFTSVDQFLEPLELCYRSLCDCGDRPIADGSLLDFLRQVSTFGLALVKLDIRQESERHSDVLDAITTHLGIGSYKEWSEDKRQEWLLSELSGKRPLFGPDLPKTEEVADVLDTFKVISELPSDSFGAYIISMATAPSDVLAVELLQRECGITDPLRVVPLFEKLADLESAPAAVARLFSIEWYRNRINGKQEVMIGYSDSGKDAGRLSAAWQLYKTQEELVKVAKEYGVKLTMFHGRGGTVGRGGGPTHLAILSQPPDTIHGQLRVTVQGEVIEQSFGEEHLCFRTLQRFTAATLEHGMHPPVSPKPEWRVLMDEMAIIATEEYRSVVFKEPRFVEYFRLATPELEYGRMNIGSRPSKRKPSGGIESLRAIPWIFAWTQTRFHLPVWLGFGGAFKRVIQKDSKNLNMLKEMYNQWPFFRVTIDLVEMVFAKGDPGIAALYDRLLVSEELQPFGEQLRVNYQETRRLLLQVAGHKDILEGDPYLRQRLQLRDPYITTLNVCQAYTLKQIRDPSFHVKVRPHLSKDYMESSPAAELVKLNPKSEYAPGLEDTVILTMKGIAAGMQNTG
- binding (UBP12-GFPn (A. thaliana)): binds
- binding (UPL3-GFPn (A. thaliana)): binds

B4: UBP12-GFPc (enzyme, UniProt Q9FPT1 1-1116)
chain: T1 sequence
- binding (UPL3-GFPn (A. thaliana)): binds
